Measurements published in doi:10.1101/2021.06.09.447716.
These are yes or no findings as the source states them, for the method shown. Binding seen in cells or lysates may run through a third protein. Binding can be weak; no strength is given.

Sequences of proteins named here, by UniProt entry; tags and fusion partners are left off. Residues count along the entry.
UniProt P56817, residues 46-501: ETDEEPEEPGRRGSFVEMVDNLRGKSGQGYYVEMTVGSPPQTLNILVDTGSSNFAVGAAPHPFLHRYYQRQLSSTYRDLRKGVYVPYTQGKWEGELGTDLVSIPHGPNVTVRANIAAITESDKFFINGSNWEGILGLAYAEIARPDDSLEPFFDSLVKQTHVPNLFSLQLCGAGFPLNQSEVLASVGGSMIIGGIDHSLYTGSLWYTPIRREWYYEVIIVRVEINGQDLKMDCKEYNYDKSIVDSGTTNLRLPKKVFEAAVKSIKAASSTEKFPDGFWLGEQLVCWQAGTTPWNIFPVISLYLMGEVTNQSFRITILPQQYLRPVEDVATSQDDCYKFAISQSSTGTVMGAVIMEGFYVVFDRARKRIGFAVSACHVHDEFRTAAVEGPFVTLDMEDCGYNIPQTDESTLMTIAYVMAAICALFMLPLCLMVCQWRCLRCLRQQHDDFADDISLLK

Target: BACE1-GFP (UniProt P56817)
Test: co-IP

binding: binds
Substance: Bin1-PL (neuronal Bin1-MYC with the LOAD mutation P318L, rs754834233) (from UniProt O08539-1)
